Experimental data taken from the odorant receptor screen of Mainland et al. (2015).
“And” between values parts separate entries of the source, which are not always exact repeats. Identical values can stand only once. The list shows a part of the results. Single wells; the ratio to wells without odorant was worked out here, and repeats agree poorly.

Chains of the proteins cited; added tags and fusions are not shown. Chains listed by the source or under a name are the forms on record and can include a tag or linker.
OR11H13, as listed by the source: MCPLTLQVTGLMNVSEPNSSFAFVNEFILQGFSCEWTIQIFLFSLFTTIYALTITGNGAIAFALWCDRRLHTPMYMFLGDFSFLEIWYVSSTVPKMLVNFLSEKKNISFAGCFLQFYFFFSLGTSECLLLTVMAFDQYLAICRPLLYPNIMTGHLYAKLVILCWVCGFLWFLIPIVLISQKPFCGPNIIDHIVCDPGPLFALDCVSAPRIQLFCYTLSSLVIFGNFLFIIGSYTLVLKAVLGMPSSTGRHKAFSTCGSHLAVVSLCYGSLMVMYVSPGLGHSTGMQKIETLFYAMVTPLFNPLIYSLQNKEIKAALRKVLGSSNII

Columns and labels:
Test in all cases: odorant receptor activation (CRE luciferase / Renilla) (fold of no-odor wells); higher = more activation
Settings in all cases: 100 µM
OR11H13 clone 1435 = tested on: OR11H13 clone 1435
OR11H4 clone 1263 = tested on: OR11H4 clone 1263
OR11H4 clone 1423 = tested on: OR11H4 clone 1423
OR11H6 clone 1275 = tested on: OR11H6 clone 1275
[1] = tested on: OR11L1 G108S/F117L/A142T/R171P clone 1031
[2] = tested on: OR12D2 V47F/L56P/S104F/F113L/L120R/V159I clone 1373
OR12D2 clone 1075 = tested on: OR12D2 clone 1075
OR12D3 clone 1071 = tested on: OR12D3 clone 1071
OR13A1 clone 1107 = tested on: OR13A1 clone 1107
OR13C2 clone 1717 = tested on: OR13C2 clone 1717
OR13C3 G2C clone 1339 = tested on: OR13C3 G2C clone 1339
OR13C3 clone 1390 = tested on: OR13C3 clone 1390
OR13C4 clone 1094 = tested on: OR13C4 clone 1094
[3] = tested on: OR13C5 S18F/L69M/P79S/L86V/N128S/M258T clone 1477
OR13C7 Indel clone 1100 = tested on: OR13C7 Indel clone 1100
OR13C8 clone 1095 = tested on: OR13C8 clone 1095
OR13C9 F197L clone 1096 = tested on: OR13C9 F197L clone 1096
OR13D1 clone 1338 = tested on: OR13D1 clone 1338
OR13D1 clone 1484 = tested on: OR13D1 clone 1484
[4] = tested on: OR13F1 F18S/M101V/V134I/I270T clone 1097

Structure (SMILES)	odorant receptor activation (OR11H13 clone 1435)	odorant receptor activation (OR11H4 clone 1263)	odorant receptor activation (OR11H4 clone 1423)	odorant receptor activation (OR11H6 clone 1275)	odorant receptor activation [1]	odorant receptor activation [2]	odorant receptor activation (OR12D2 clone 1075)	odorant receptor activation (OR12D3 clone 1071)	odorant receptor activation (OR13A1 clone 1107)	odorant receptor activation (OR13C2 clone 1717)	odorant receptor activation (OR13C3 G2C clone 1339)	odorant receptor activation (OR13C3 clone 1390)	odorant receptor activation (OR13C4 clone 1094)	odorant receptor activation [3]	odorant receptor activation (OR13C7 Indel clone 1100)	odorant receptor activation (OR13C8 clone 1095)	odorant receptor activation (OR13C9 F197L clone 1096)	odorant receptor activation (OR13D1 clone 1338)	odorant receptor activation (OR13D1 clone 1484)	odorant receptor activation [4]
COc1cc(C)ccc1O [2-methoxy-4-methylphenol]	1.47	0.913	1.01	0.768	2.02	0.182	1.34	2.22	7.32	0.816	1.04	1.2	11.9	0.85	7.2	1.64	10.9	0.939	0.771	1.2
CC(C)C(=O)O [isobutyric acid]	0.688	1.1 and 1.11	0.967	0.789 and 0.712	0.693	0.776	0.897	1	1.91	0.98	1.05 and 0.83	0.649	1.08	0.993 and 0.924	0.506	1.31	1.12	1.25 and 0.676	1.11 and 0.979	2.34
C=CCSCC=C [diallyl sulfide]	1.28	0.88	1.39	0.967	0.975	1.24	0.889	0.958	1.14	0.8	1.16	1.05	0.831	1.09	0.846	1.02	0.932	0.946	1.25	0.907
c1ccc(Oc2ccccc2)cc1 [diphenyl ether]	1.09	0.88	1.04	1.09	1.01	0.93	1.05	0.873	0.909	0.956	1.02	0.941	0.877	0.871	0.905	0.93	0.838	0.925	1.07	0.878
CC(=O)C(C)=O [diacetyl]	1.38	0.921	1.37	1.16	0.95	1.37	0.959	1.04	1.3	0.804	1.3	1.39	0.775	0.966	0.899	0.954	1.03	1.11	1.52	0.99
CCCCCOC(C)=O [n-amyl acetate]	0.977	0.667	0.805	0.878	1.68	0.717	1.45	0.762	1.14	1	0.206	0.901	0.543	0.392 and 0.727	0.91	2.01	1.33	0.431	0.943 and 0.804	1.5
C=CCc1ccc(OC(C)=O)c(OC)c1 [eugenol acetate]	1.41	1.52	2.2	1.61	2.16	1.29	1.64	1.7	2.12	3.29	1.91	1.6	1.37	1.65	1.49	1.64	1.74	1.55	2.05	1.69
CC(C)=CCCC(C)=CC=O [citral]	0.183	1.2	0.179	1.11	1.14	0.279	1.41	1.05	1.25	0.914	1.22	0.222	1.09	0.925	1.12	0.907	1.08	1.17	1.29	1.29
CC(=O)OC(C)(C)C1CC=C(C)CC1 (stereo not given) [terpinyl acetate]	1.42	0.879	0.839	0.893	1.11	0.813	1.46	1.08	1.14	0.988	0.771	0.856	1.59	0.848	1.03	1.78	1.5	0.769	0.912	1.57
CCCCCCCCCCC=O [undecanal]	1.3	0.838	0.984	0.962	1.1	0.946	1.35	0.912	0.875	0.796	0.654	0.894	0.971	1.18	0.875	1.16	0.95	0.88	0.969	1.33
O=C1CCCCCCCCCCCC(=O)OCCO1 [ethylene brassylate]	1.86	1.74	1.39	1.3	1.68	1.45	1.18	1.28	1.64	1.33	1.67	1.74	1.22	1.25	1.15	1.24	1.18	1.25	1.21	1.13
COc1cc(C=O)ccc1O [vanillin]	1.1	1.05	0.771	0.944	0.825	0.789	0.989	0.945	0.729	0.705	0.933	0.89	0.88	1.1	0.72	1.02	0.84	1.07	1.06	1.01
CC(C)CC(=O)O [isovaleric acid]	0.913	0.644	0.768	0.736	1.43	1.29	1.33	1.66	1.81	0.994	0.913	0.64	1.12	0.961	1.18	1.14	1.13	1.03	0.712	1.37
O=C1CCCCCCCCCCCCCCO1 [pentadecalactone]	1.71	0.727	0.962	0.689	0.828	0.956	1.18	0.929	1.29	0.793	0.742	1	1.1	0.78	0.678	1.14	0.725	0.857	0.781	0.776
